# Measured values published in US20070099839A1, “Inhibitors of cell migration” (CIT CANCER TARGETING TECHNOLOGIES, priority 2001, published 2007).
# Not every detail of the peptide structures is certain; ends, links or a residue may be inferred. Some entries share one result that the patent states for a list of compounds. No end group written: not given here.
# How the values were obtained:
# [1] = test system: PMNs; experiment: PMN transendothelial migration through HMEC monolayer; format: cell-based, human; conditions: chemotaxis with C5a or TNF-α, peptides 200 μM, antibodies 20 μg/ml, FIG. 6B
# Experimental: (§1) FIG. 6A to 6D. Blockage of PMN and THP-1 cell migration in vitro by gelatinase and β2 integrin inhibitors. PMNs (1×10^5 in 100 μl) were applied on the LLG-C4-GST or GST coated surface (6A) or HMEC monolayer (6B) in the absence or presence of peptides (200 μM) or antibodies (20 μg/ml) as indicated. PMNs were stimulated with 20 nM PMA (6A), HMECs with […] or 10 ng/ml TNFα or left untreated (6B). THP-1 cells (5×10^4 in 100 μl) were stimulated with 50 nM PMA and applied on the coated surfaces together with each peptide (200 μM) (6C). The cells migrated through transwell filters were stained and counted microscopically. All experiments were repeated at least twice. (6D) Phorbol ester-activated THP-1 cells (5×10^4 in 100 μl) were incubated for 16 h at +37° C. in the presence or absence of peptides as indicated. The conditioned medium was analyzed by gelatin zymography.
# (§2) Cell migration was conducted using Costar 24-transwell migration chambers with a 3 μm pore size for PMNs and 8 μm for THP-1 cells. To study β2 integrin-directed migration, the chamber membrane was coated on both sides with LLG-C4-GST integrin ligand (40 μg/ml) or GST as a control and blocked with 10% serum-containing medium (16). […] The non-migrated cells were removed from the upper surface by a cotton swab and the cells that had traversed the filters were stained with crystal violet and counted.
# [2] = test system: intraperitoneal accumulation of PMNs; experiment: Mouse model of thioglycolate-induced peritonitis; format: in vivo; conditions: for inhibition of intraperitoneal PMN accumulation: intravenous, 3 h
# Experimental: (7A) Mice were injected with thioglycolate or PBS intraperitoneally. The peptides were applied intravenuously at the amounts indicated (A). After 3 h, the intraperitoneal leukocytes were harvested and counted. […] (*) indicates statistical significant difference (p<0.001). The experiment was repeated at least 3 times. The infiltrated neutrophils of mice treated with thioglycolate (7B) or PBS (7C) were stained with anti-MMP-9 and anti-αM, as described in the FIG. 3 legend. Fluorescence was studied by confocal microscopy. Bars: 9.1 μm and […], respectively.
# (7D) Gelatinolytic activity of the supernatants from the peritoneal cavities of mice collected as in (7A). Lanes 1-4: samples are from thioglycolate-treated mice; lane 5: a sample from PBS-treated mouse. DDGW, HFDDDE, and DFEDHD were injected intravenously at doses of 0.1, 0.2 and 0.2 mg per mouse. The arrows show proMMP-9 dimer, proMMP-9 and proMMP-2. The experiment was repeated three times with similar results.
# Balb/c mice at the age of 31-32 weeks were injected intraperitoneally with 3% (w/v) thioglycolate in sterile saline (32). Peptides ([…] in 100 μl) were introduced intravenously through the tail vein. Animals were euthanized after 3 h and the peritoneal cells were harvested by injecting 10 ml of sterile PBS through the peritoneal wall. Red blood cells present in the lavage fluid were removed by hypotonic lysis. Cells were centrifuged and resuspended in 1 ml of sterile 0.25% BSA/Krebs-Ringer. The supernatants were also collected and analysed by gelatin zymography. The number of neutrophils was determined following staining with 0.1% crystal violet and using a light microscope equipped with a ×100 objective. For immunofluorescence staining, cells were allowed to bind to poly-L-lysine coated cover slips, fixed with 2.5% paraformaldehyde in PBS at +4° C. for 30 min followed by several washings. The Fc receptors were blocked in the presence of 20% of rabbit serum and 3% BSA in PBS. The cells were then incubated with anti-MMP-9 polyclonal and αM monoclonal (MCA74) antibodies for 30 min. After washing with PBS, the secondary antibodies, rhodamine (TRITC)-conjugated anti-rabbit or FITC-conjugated anti-rat (Fab′)2 were incubated for another 30 min. The samples were examined with a confocal microscope. The animal studies were approved by an ethical committee of Helsinki University.
# [3] = test system: THP-1 cells; experiment: THP-1 cell migration through LLG-C4-GST coated transwell filters; format: cell-based, human; conditions: LLG-C4GST coated filters; 50 nM PMA; peptides 200 μM; 16 h; FIG. 6C
# Experimental: as §1, §2
# [4] = test system: PMNs; experiment: PMN transwell migration on LLG-C4-GST coated filters; format: cell-based, human; conditions: LLG-C4-GST substratum, peptides 200 μM, antibodies 20 μg/ml, FIG. 6A
# Experimental: as §1, §2
# [5] = test system: PMNs; experiment: PMN adhesion to immobilized proMMP-9 (phosphatase assay); format: cell-based, human; conditions: PMA-stimulated PMNs; peptide 50 μM, antibody 20 μg/ml; FIG. 5C
# Experimental: FIG. 5A to 5D. Recognition of recombinant MMP-9 domains by αMβ2 integrin-expressing cells. The studied cells were PMNs (5A, 5B, 5C), αMβ2 L-cell transfectants (5D), non-transfectants (5D), and LAD-1 cells (5D). PMNs were in resting state or stimulated with PMA (5A, 5C) or C5a or TNFα (5B) before the binding experiment to proMMP-9 or its domains. Cells were also pretreated with each peptide (50 μM), antibody (20 μg/ml) or the αM I domain as indicated. Unbound cells were removed by washing and the number of adherent cells was quantitated by a phosphatase assay. The experiment was repeated three times with similar results.
# MMP-9 proteins (200 nM in PBS) were coated at +4° C. for 16 h and the microtiter wells were blocked with 3% BSA in PBS for 1 h at room temperature. The αMβ2-integrin L-cell transfectants and PMNs (1×10^5 cells/well) were suspended in RPMI medium supplemented with 2 mM MgCl2 and 0.1% BSA and activated with PMA (20 nM) for 20 min, or with C5a (50 nM) or TNF-α (10 nM) for 4 h at +37° C. The L926 wild type and LAD-1 cells were used as controls. The cells were treated with the indicated antibody (20 μg/ml) or peptide (50 μM) at +37° C. for 30 min, washed twice with serum-free medium and incubated in the microtiter wells at +37° C. for 30 min. The wells were washed with PBS, and the number of adherent cells was quantitated by a phosphatase assay (25).
# [6] = test system: THP-1 cells; experiment: Effect of peptides on gelatinase release from THP-1 cells (gelatin zymography); format: cell-based, human; conditions: phorbol ester-activated cells; peptides 200 μM; 16 h; FIG. 6D
# Experimental: as §1
# THP-1 cells (50 000/100 μl) were incubated in serum-free RPMI for 16 h in the presence or absence of peptides (200 μM) as described in the text The supernatants from THP-1 cells and mouse intraperitoneal fluid were analysed by gelatin zymography. Gelatinolytic activity was quantified by densitometric scanning.
Substance,inhibition of PMN transendothelial migration [1],"prevention of thioglycolate-induced increase in gelatinase levels in intraperitoneal fluid (zymography) ([2]; DDGW 0.1, HFDDDE 0.2, DFEDHD 0.2 mg per mouse intravenously, FIG. 7D)",inhibition of intraperitoneal PMN accumulation ([2]; dose 500 μg per mouse),"inhibition of intraperitoneal accumulation of PMNs ([2]; intravenous tail injection, 3 h after thioglycolate, FIG. 7A)",inhibition of THP-1 migration [3],inhibition of migration of PMA-stimulated PMNs ([4]; 20 nM PMA),inhibition of basal migration of non-activated PMNs ([4]; no PMA),inhibition of PMN adherence on proMMP-9 [5],release of proMMP-9 from THP-1 cells [6],inhibition of intraperitoneal PMN accumulation ([2]; dose 50 μg per mouse)
HFDDDE [HFDDDE],inhibition,prevented the increase,up to 90%,inhibited,inhibited,inhibited,not,inhibited,released proMMP-9 but was less effective than DDGW,–
ADGACILWMDDGWCGAAG,–,–,–,–,–,–,–,–,–,up to 90%
